Percent effect of library compounds

Protein sequences, listed by entry. Tags and fused reporters are not part of them. Residues count along the entry.
UniProt P9WPC5, whole entry: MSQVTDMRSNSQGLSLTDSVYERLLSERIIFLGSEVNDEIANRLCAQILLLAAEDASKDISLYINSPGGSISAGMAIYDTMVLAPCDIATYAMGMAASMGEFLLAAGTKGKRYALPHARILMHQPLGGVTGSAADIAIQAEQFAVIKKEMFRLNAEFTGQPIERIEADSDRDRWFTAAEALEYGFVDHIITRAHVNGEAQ
UniProt P9WPC3, whole entry partner: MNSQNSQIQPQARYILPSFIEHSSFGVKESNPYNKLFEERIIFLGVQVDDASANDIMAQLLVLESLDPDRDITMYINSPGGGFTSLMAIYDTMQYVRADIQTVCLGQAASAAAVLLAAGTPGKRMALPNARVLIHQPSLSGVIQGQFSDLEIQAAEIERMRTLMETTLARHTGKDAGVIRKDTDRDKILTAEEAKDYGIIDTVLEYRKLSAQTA
UniProt I6X8D2, whole entry: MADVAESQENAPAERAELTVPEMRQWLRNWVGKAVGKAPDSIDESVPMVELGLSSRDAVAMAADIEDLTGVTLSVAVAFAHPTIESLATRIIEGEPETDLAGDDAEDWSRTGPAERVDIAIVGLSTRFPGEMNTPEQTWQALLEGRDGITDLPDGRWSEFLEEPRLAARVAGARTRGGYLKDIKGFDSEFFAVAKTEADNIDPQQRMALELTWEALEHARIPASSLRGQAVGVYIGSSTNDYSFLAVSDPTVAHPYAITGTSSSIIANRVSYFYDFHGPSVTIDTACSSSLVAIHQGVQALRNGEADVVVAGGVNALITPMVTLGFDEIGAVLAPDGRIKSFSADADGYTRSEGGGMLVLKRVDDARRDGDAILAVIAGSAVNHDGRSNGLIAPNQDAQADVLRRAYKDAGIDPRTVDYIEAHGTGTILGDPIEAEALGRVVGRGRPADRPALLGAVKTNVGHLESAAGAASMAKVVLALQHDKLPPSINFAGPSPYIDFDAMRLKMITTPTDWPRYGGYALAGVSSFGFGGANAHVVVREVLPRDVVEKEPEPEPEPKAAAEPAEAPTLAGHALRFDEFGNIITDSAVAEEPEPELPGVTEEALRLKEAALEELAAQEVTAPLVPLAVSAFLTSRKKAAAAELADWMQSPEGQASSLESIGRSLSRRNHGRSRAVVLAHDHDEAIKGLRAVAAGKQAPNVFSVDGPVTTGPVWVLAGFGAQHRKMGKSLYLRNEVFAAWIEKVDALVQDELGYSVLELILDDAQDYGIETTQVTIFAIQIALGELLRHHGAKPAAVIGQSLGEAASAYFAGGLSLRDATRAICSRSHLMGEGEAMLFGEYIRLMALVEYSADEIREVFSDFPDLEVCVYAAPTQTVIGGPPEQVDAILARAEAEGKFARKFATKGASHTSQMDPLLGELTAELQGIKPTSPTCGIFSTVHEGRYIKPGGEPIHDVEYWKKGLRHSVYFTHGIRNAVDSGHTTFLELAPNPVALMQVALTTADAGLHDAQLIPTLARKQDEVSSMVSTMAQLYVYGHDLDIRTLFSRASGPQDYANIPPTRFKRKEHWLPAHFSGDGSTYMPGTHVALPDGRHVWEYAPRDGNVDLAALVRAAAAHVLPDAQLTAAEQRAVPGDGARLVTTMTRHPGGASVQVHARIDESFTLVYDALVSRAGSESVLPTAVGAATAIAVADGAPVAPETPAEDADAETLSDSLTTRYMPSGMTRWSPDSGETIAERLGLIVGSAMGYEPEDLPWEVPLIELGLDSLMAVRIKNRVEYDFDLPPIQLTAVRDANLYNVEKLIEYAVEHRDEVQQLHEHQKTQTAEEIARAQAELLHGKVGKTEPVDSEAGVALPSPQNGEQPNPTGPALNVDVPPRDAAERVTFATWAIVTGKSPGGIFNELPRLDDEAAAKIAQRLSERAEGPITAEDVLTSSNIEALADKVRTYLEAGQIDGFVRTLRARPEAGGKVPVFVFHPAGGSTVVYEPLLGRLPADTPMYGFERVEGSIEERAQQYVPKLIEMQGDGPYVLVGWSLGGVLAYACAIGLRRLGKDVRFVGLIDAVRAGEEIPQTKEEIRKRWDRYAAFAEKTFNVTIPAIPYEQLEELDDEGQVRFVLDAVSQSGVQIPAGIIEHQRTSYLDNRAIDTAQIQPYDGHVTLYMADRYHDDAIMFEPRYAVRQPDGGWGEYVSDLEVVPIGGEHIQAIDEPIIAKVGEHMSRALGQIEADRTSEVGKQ
UniProt P9WNZ1, whole entry: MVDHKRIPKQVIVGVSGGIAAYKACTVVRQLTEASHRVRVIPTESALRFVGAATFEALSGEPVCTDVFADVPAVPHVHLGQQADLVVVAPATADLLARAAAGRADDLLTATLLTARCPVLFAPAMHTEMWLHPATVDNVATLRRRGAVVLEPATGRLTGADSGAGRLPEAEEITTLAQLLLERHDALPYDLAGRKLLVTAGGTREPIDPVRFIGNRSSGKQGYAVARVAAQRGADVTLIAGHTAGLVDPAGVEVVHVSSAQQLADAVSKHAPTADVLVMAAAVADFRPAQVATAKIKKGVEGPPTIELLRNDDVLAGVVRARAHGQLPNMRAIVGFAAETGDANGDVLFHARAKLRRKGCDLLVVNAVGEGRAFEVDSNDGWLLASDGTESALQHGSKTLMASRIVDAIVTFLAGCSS
UniProt A4I591, 1-473: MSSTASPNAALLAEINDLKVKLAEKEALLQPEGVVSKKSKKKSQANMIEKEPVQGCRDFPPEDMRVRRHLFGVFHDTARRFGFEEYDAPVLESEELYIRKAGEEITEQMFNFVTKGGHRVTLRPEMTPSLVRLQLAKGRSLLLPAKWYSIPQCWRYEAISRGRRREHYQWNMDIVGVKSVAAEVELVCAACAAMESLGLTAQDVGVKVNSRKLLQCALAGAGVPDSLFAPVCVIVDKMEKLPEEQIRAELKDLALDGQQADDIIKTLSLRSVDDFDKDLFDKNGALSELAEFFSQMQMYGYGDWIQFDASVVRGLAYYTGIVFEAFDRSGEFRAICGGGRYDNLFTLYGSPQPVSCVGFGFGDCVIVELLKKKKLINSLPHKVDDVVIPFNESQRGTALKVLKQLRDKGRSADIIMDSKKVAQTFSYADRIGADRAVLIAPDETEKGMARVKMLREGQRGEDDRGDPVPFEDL
UniProt Q4DA54, 1-478: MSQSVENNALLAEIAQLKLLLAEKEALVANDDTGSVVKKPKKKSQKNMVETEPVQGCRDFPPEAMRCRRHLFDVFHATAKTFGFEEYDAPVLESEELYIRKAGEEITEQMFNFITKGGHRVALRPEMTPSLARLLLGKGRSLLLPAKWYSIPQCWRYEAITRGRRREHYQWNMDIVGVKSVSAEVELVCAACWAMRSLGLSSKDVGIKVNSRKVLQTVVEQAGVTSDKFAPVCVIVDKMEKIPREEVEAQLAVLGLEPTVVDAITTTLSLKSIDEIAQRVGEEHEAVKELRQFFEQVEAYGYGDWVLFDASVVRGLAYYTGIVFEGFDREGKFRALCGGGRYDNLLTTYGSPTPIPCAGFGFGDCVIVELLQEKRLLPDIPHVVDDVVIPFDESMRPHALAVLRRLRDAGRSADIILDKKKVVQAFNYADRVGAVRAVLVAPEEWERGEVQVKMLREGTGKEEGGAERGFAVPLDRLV

The values are deposited in ChEMBL (CHEMBL3988442, “University of Dundee, Small-Polar-MMV Screening Library” (2021)).

ClpP1P2: 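Protease assay of ClpP1P2, read by the AMC dye that it sets free. Target: ClpP1P2, Mycobacterium tuberculosis (UniProt P9WPC5 and UniProt P9WPC3). Concentration: 50 µM. Direction is inferred from only a few compounds that gave an IC50; most scored high, so higher reads as stronger inhibition. Most other retested compounds had strongly negative values. Size under these conditions: about 69,000 compounds, about 10 of them at 50% or above in at least one test.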
Pks13 thioesterase: 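Polyketide synthase Pks13, Mycobacterium tuberculosis (UniProt I6X8D2). Enzyme assay of the thioesterase domain of polyketide synthase 13; the read-out is not stated. Concentration: 30 µM. Higher reads as stronger inhibition (inferred from which compounds were picked for retests). Of about 67,000 compounds tested this way, about 300 (0.46%) reached 50% or more in at least one test.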
CoaBC: 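Enzyme assay of CoaBC with a phosphate dye (Biomol Green) read at 650 nm. Target: Coenzyme A biosynthesis protein CoaBC, Mycobacterium tuberculosis (UniProt P9WNZ1). Tested at 30 µM. Direction is inferred from only a few compounds that gave an IC50; most scored high, so higher reads as stronger inhibition. Most strong results did not repeat in a second test. About 67,000 compounds were tested under these conditions; 0.06% (about 40) showed 50% or more at least once.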
LiHisRS: 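Enzyme assay of histidyl-tRNA synthetase; the read-out is not stated. Target: Histidine-tRNA ligase, Leishmania infantum (UniProt A4I591). Concentration: 30 µM. Direction is inferred from retests: higher values go with stronger inhibition. The assay is labelled LdHisRS but filed under L. infantum. About 69,000 compounds were tested under these conditions; 0.6% (about 410) showed 50% or more at least once.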
TcHisRS: 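Enzyme assay of histidyl-tRNA synthetase; the read-out is not stated. Target: Histidine-tRNA ligase, Trypanosoma cruzi CL Brener (UniProt Q4DA54). Concentration: 30 µM. Higher reads as stronger inhibition (inferred: compounds with an IC50 in retests scored well above the rest). About 69,000 compounds were tested under these conditions; 0.045% (about 31) showed 50% or more at least once.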

Values are the deposited “Percent Effect”, in %.
How 0% and 100% were set is not recorded. Most values in the screen are low, and negative values occur.
The compounds are a random part of those screened.

With CCS(=O)(=O)N1CC[C@H]2O[C@H](c3nc(C)no3)CC[C@H]21 the screen gave ClpP1P2: -4.259%; Pks13 thioesterase: 11.7%; CoaBC: 2.506%; LiHisRS: 20.51%; TcHisRS: 4.878%. Result for CC(C)(C)C(=O)N1CCC(c2cnc(-c3cn[nH]c3)cn2)CC1 was ClpP1P2: -11.34%; Pks13 thioesterase: -5.286%; CoaBC: -2.663%; LiHisRS: 4.196%; TcHisRS: 2.26%. For Cc1nc(C2CCNC2)nc2c1CCC(=O)N2CC(C)C (stereo unspecified) the result was ClpP1P2: 0.8652%; Pks13 thioesterase: 10.4%; CoaBC: -5.519%; LiHisRS: -8.696%; TcHisRS: -2.273%. For Cc1cnc(N)c(C(=O)C2CCN(C(=O)c3cnc(C)nc3C)CC2)c1 the result was ClpP1P2: -14.54%; Pks13 thioesterase: -13.09%; CoaBC: 4.089%; LiHisRS: 2%; TcHisRS: -0.7491%. With COc1ccccc1Cc1cncc(N2CC(C(=O)O)C2)n1 the screen gave ClpP1P2: -728.6%; Pks13 thioesterase: 20.2%; CoaBC: -1.051%; LiHisRS: 10.14%; TcHisRS: 11.36%. CC(C)CCNc1nnc(C(C)C)s1 read ClpP1P2: 8.866%; Pks13 thioesterase: -9.512%; CoaBC: 1.38%; LiHisRS: 13.56%; TcHisRS: -0.4878%.

Result for CC(Sc1nncn1C)C(=O)NCCCOc1ccc(F)cc1 (stereo unspecified) was ClpP1P2: 1.254%; Pks13 thioesterase: -34.94%; CoaBC: 6.4%; LiHisRS: 20.51%; TcHisRS: 0%. With Cc1nc(C2(O)CCCNCC2)sc1CCOc1ccc(F)cc1 (stereo unspecified) the screen gave ClpP1P2: -7.782%; Pks13 thioesterase: -5.862%; CoaBC: 12.02%; LiHisRS: 20%; TcHisRS: 5.993%. With CCc1nc(C2CCCN(C(=O)c3ccc4c(c3)nnn4C)C2)no1 (stereo unspecified) the screen gave ClpP1P2: 0.1924%; Pks13 thioesterase: -16.36%; CoaBC: -2.051%; LiHisRS: 21.33%; TcHisRS: -3.396%. Cc1cc(C(=O)NCCCn2nccc2C2CC2)c(=O)[nH]c1C gave ClpP1P2: -16.48%; Pks13 thioesterase: 30.91%; CoaBC: 6.838%; LiHisRS: 6.838%; TcHisRS: 5.946%. Result for O=C(O)CSc1nnc(-c2ccn[nH]2)n1-c1ccccc1Cl was ClpP1P2: -13.56%; Pks13 thioesterase: -28.91%; CoaBC: 0.7673%; LiHisRS: 14.75%; TcHisRS: 6.061%. Result for O=C(N[C@H]1COC[C@@H]1N1CCCC1)c1c[nH]nc1C1CCCCC1 was ClpP1P2: 1.743%; Pks13 thioesterase: -29%; CoaBC: -2.439%; LiHisRS: 16.67%; TcHisRS: 11.69%.

O=C(CCc1ccsc1)NCc1ccnc(OC2CCOCC2)c1 read ClpP1P2: 2.926%; Pks13 thioesterase: -0.2136%; CoaBC: 8.055%; LiHisRS: 9.649%; TcHisRS: 12.07%. For COC(=O)c1cccc(C(=O)N(C)Cc2ccsc2)c1 the result was ClpP1P2: 21.35%; Pks13 thioesterase: 25.13%; CoaBC: -2.479%; LiHisRS: 6.122%; TcHisRS: 7%. Result for O=C([C@@H]1CCO[C@@H]2CCN(CC3CC3)C[C@H]21)N1CCCCO1 was ClpP1P2: 2.308%; Pks13 thioesterase: 10.05%; CoaBC: 9.524%; LiHisRS: 17.95%; TcHisRS: -4.878%. For Cc1cnc2n(c1=O)C(CC(=O)NCc1ccc(Cl)cc1)CS2 (stereo unspecified) the result was ClpP1P2: -2.654%; Pks13 thioesterase: -6.623%; CoaBC: 0.8424%; LiHisRS: 15.73%; TcHisRS: 8.543%. CCC1=N[C@@]2(CC[C@@H]3CN(C(=O)NCC(C)C)C[C@@H]32)C(=O)N1CC1CC1 gave ClpP1P2: -3.084%; Pks13 thioesterase: -41.66%; CoaBC: 2.581%; LiHisRS: 27.78%; TcHisRS: 4.478%. Cc1ccccc1C(=O)N1CCC2(CC1)CC(c1cnn(C)c1)CO2 (stereo unspecified) read ClpP1P2: 1.332%; Pks13 thioesterase: -9.064%; CoaBC: 3%; LiHisRS: 22%; TcHisRS: 17.65%.

Cn1cc(NC(=O)c2cc[nH]n2)cc(Cl)c1=O read ClpP1P2: -8.671%; Pks13 thioesterase: 70.52%; CoaBC: 1.006%; LiHisRS: 10.26%; TcHisRS: 24.16%. With c1cc(CN2CCOC3(CCCC3)C2)no1 the screen gave ClpP1P2: -6.149%; Pks13 thioesterase: -7.652%; CoaBC: 2.457%; LiHisRS: 15.08%; TcHisRS: 9.412%. CCCn1nc(C(=O)N(C)Cc2cnn(C)c2)ccc1=O read ClpP1P2: -2.273%; Pks13 thioesterase: -2.084%; CoaBC: 4.362%; LiHisRS: 1.064%; TcHisRS: 3.015%. With CN1CCCc2cc(CNC(=O)c3cccnc3O)ccc21 the screen gave ClpP1P2: -5.349%; Pks13 thioesterase: -2.972%; CoaBC: 4.845%; LiHisRS: 5.263%; TcHisRS: 3.725%. For CC1(C)CN(Cc2nnc(-c3cccnc3)o2)CC[C@]1(C)O the result was ClpP1P2: -0.5539%; Pks13 thioesterase: 10.73%; CoaBC: 13.87%; LiHisRS: 21.37%; TcHisRS: 4.444%. Result for Cn1cc(CN2CCn3cnc(COCC4CC4)c3C2)cn1 was ClpP1P2: -3.411%; Pks13 thioesterase: 11.08%; CoaBC: -8.065%; LiHisRS: 11.11%; TcHisRS: 1.493%.

Result for O=C(N1CCCC1)N1CCc2c(CNc3ncccn3)cncc2C1 was ClpP1P2: -3.143%; Pks13 thioesterase: -8.539%; CoaBC: -21.5%; LiHisRS: 22.86%; TcHisRS: 11.76%. For Cc1nn(C)c(Cl)c1C1CCCN1CC(=O)NCc1ccco1 (stereo unspecified) the result was ClpP1P2: -7.219%; Pks13 thioesterase: -6.756%; CoaBC: 9.317%; LiHisRS: 15.79%; TcHisRS: -0.2865%.

Some entries from above, unchanged:

- O=C(O)CSc1nnc(-c2ccn[nH]2)n1-c1ccccc1Cl | ClpP1P2: -13.56%; Pks13 thioesterase: -28.91%; CoaBC: 0.7673%; LiHisRS: 14.75%; TcHisRS: 6.061%
- CN1CCCc2cc(CNC(=O)c3cccnc3O)ccc21 | ClpP1P2: -5.349%; Pks13 thioesterase: -2.972%; CoaBC: 4.845%; LiHisRS: 5.263%; TcHisRS: 3.725%